Measured values reported in doi:10.1101/2022.12.19.520889.
These are yes or no findings as the source states them, for the method shown. Binding seen in cells or lysates may run through a third protein. For part of these data: A result given as binding can be weak or reduced; the word gives no strength. Values belong to the molecule of their own block, whether it stands above or below them.

Chains of the proteins cited; added tags and fusions are not shown. Lines headed by an entry give the natural chain unless they say otherwise; changes in a name come on top.
UniProt P10721: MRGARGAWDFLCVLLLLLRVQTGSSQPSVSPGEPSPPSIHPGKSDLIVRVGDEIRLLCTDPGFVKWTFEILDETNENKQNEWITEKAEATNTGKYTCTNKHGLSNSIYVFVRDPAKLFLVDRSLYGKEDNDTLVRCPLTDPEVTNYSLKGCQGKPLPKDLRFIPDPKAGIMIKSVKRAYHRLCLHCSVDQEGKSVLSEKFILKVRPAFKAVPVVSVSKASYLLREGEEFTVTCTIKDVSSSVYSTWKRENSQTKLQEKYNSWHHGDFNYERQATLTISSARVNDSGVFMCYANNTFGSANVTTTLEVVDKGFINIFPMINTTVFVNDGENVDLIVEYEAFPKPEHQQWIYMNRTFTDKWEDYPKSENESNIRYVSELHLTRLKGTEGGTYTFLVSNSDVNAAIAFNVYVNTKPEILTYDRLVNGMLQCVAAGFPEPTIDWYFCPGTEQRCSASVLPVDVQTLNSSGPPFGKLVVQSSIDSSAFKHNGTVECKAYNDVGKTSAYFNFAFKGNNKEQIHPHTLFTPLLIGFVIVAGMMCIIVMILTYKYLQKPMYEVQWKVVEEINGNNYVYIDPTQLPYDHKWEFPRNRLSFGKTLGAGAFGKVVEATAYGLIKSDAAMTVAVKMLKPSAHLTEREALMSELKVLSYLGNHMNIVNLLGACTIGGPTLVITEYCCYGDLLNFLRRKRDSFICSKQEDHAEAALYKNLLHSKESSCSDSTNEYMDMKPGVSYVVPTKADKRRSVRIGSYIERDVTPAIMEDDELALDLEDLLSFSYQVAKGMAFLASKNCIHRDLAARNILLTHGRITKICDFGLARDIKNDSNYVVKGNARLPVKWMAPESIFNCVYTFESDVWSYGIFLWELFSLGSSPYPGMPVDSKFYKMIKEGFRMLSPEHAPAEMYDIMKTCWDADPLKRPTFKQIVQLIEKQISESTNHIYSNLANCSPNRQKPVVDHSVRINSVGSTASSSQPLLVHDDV
UniProt Q9UBF8: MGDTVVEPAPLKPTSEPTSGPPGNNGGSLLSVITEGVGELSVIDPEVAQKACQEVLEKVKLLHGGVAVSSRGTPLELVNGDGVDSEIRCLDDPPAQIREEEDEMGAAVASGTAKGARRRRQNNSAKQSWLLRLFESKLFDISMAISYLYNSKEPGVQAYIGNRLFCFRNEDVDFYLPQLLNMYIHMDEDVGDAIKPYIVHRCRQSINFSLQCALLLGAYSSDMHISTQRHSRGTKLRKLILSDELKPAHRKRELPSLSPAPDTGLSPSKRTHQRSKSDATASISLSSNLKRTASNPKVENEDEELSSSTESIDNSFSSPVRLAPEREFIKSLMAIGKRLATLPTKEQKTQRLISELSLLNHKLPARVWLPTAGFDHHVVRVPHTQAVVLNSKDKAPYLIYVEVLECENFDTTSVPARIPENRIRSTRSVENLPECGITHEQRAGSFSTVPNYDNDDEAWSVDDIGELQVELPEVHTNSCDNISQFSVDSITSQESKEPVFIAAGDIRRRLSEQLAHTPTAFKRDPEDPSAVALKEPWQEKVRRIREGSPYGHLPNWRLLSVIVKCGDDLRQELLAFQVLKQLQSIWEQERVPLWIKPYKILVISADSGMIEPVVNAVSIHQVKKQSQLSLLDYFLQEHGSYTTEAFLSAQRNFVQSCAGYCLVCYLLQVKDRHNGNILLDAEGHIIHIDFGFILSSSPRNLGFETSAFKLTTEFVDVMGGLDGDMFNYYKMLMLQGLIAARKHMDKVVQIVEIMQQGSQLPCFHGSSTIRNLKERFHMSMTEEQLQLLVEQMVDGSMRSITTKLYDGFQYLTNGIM
UniProt O43747: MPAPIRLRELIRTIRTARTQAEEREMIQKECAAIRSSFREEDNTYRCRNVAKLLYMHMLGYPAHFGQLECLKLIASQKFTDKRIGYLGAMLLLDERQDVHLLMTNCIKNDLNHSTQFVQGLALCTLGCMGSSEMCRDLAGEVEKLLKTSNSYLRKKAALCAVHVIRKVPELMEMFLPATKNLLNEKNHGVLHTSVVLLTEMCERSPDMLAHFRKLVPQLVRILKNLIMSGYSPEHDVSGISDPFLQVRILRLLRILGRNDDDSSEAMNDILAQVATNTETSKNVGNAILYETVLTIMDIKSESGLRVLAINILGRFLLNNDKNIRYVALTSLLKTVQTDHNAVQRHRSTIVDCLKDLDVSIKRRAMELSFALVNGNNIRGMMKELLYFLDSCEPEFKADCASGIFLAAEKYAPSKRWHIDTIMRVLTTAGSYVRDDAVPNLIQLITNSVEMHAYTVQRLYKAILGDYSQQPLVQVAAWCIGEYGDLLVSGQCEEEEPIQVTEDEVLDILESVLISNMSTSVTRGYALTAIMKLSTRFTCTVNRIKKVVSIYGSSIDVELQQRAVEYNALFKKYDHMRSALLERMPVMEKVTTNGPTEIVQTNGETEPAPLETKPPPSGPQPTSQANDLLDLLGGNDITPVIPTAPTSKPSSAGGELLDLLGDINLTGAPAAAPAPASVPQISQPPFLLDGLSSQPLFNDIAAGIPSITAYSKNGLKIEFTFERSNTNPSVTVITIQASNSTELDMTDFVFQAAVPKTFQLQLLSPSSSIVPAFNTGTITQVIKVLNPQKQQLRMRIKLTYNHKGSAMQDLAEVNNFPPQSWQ

What was measured:
[1] = target: KIT mutant of GIST-T1 cells (KIT^Ex11, imatinib-sensitive) (human (endogenous in GIST-T1)) (UniProt P10721); assay: co-IP
[2] = target: T1, protein kinase D2 (PKD2) (human (endogenous in GIST-T1 and leukemia cell lines)) (UniProt Q9BZL6); assay: condition: only cells treated with 200 nM imatinib for 8 hours
T1 sequence: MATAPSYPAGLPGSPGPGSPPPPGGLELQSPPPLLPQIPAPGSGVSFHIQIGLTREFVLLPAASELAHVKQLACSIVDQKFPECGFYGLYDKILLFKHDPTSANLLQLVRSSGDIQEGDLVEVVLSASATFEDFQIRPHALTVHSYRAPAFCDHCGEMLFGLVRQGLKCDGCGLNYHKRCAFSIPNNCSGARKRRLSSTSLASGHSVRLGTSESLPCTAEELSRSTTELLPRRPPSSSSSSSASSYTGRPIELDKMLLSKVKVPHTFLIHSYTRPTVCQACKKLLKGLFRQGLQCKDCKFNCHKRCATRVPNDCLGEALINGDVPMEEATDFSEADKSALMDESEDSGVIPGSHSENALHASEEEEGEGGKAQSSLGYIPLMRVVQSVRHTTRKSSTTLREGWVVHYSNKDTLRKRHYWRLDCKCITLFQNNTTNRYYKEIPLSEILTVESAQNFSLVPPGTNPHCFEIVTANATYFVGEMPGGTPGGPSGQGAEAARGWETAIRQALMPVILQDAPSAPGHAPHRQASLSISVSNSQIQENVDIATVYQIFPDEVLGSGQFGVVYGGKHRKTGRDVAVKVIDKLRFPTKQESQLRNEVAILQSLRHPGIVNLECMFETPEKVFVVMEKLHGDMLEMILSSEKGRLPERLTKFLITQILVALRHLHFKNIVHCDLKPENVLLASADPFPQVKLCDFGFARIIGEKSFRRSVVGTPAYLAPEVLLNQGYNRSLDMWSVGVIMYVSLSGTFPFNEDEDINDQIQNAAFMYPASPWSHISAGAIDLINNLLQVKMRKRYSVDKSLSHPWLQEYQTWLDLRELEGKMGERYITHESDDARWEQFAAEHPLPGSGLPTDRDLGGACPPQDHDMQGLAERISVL

[3] = target: T1, protein kinase D2 (PKD2) (human (endogenous in GIST-T1 and leukemia cell lines)); assay: co-IP
[4] = target: KIT mutant of GIST-T1 cells (KIT^Ex11, imatinib-sensitive) (human (endogenous in GIST-T1)) (UniProt P10721); assay: proximity ligation
[5] = target: KIT mutant of GIST-T1 cells (KIT^Ex11, imatinib-sensitive) (human (endogenous in GIST-T1)) (UniProt P10721); assay: condition: only cells treated with 200 nM imatinib for 8 hours

Molecule: phosphatidylinositol 4-kinase IIIβ (PI4KIIIβ) (from UniProt Q9UBF8 1-816) (enzyme)
binding [1]: binds

Molecule: KIT mutant of GIST-T1 cells (KIT^Ex11, imatinib-sensitive) (from UniProt P10721) (receptor)
binding [2]: no binding | binding [3]: binds

B2: GGA1 (Golgi-associated, γ-adaptin ear-containing, ARF-binding protein 1) (protein, UniProt Q9UJY5 1-639)
chain: MEPAMEPETLEARINRATNPLNKELDWASINGFCEQLNEDFEGPPLATRLLAHKIQSPQEWEAIQALTVLETCMKSCGKRFHDEVGKFRFLNELIKVVSPKYLGSRTSEKVKNKILELLYSWTVGLPEEVKIAEAYQMLKKQGIVKSDPKLPDDTTFPLPPPRPKNVIFEDEEKSKMLARLLKSSHPEDLRAANKLIKEMVQEDQKRMEKISKRVNAIEEVNNNVKLLTEMVMSHSQGGAAAGSSEDLMKELYQRCERMRPTLFRLASDTEDNDEALAEILQANDNLTQVINLYKQLVRGEEVNGDATAGSIPGSTSALLDLSGLDLPPAGTTYPAMPTRPGEQASPEQPSASVSLLDDELMSLGLSDPTPPSGPSLDGTGWNSFQSSDATEPPAPALAQAPSMESRPPAQTSLPASSGLDDLDLLGKTLLQQSLPPESQQVRWEKQQPTPRLTLRDLQNKSSSCSSPSSSATSLLHTVSPEPPRPPQQPVPTELSLASITVPLESIKPSNILPVTVYDQHGFRILFHFARDPLPGRSDVLVVVVSMLSTAPQPIRNIVFQSAVPKVMKVKLQPPSGTELPAFNPIVHPSAITQVLLLANPQKEKVRLRYKLTFTMGDQTYNEMGDVDQFPPPETWGSL
binding [1]: binds

The next lines start with the values.

binding [1]: binds
Molecule: γ-adaptin (AP1 component) (from UniProt O43747 1-822)

binding [4]: binds
B1: phospho-PLCγ2^Y759 (phospholipase Cγ2 phosphorylated at Y759) (enzyme, UniProt P16885 1-1265)
chain: MSTTVNVDSLAEYEKSQIKRALELGTVMTVFSFRKSTPERRTVQVIMETRQVAWSKTADKIEGFLDIMEIKEIRPGKNSKDFERAKAVRQKEDCCFTILYGTQFVLSTLSLAADSKEDAVNWLSGLKILHQEAMNASTPTIIESWLRKQIYSVDQTRRNSISLRELKTILPLINFKVSSAKFLKDKFVEIGAHKDELSFEQFHLFYKKLMFEQQKSILDEFKKDSSVFILGNTDRPDASAVYLHDFQRFLIHEQQEHWAQDLNKVRERMTKFIDDTMRETAEPFLFVDEFLTYLFSRENSIWDEKYDAVDMQDMNNPLSHYWISSSHNTYLTGDQLRSESSPEAYIRCLRMGCRCIELDCWDGPDGKPVIYHGWTRTTKIKFDDVVQAIKDHAFVTSSFPVILSIEEHCSVEQQRHMAKAFKEVFGDLLLTKPTEASADQLPSPSQLREKIIIKHKKLGPRGDVDVNMEDKKDEHKQQGELYMWDSIDQKWTRHYCAIADAKLSFSDDIEQTMEEEVPQDIPPTELHFGEKWFHKKVEKRTSAEKLLQEYCMETGGKDGTFLVRESETFPNDYTLSFWRSGRVQHCRIRSTMEGGTLKYYLTDNLTFSSIYALIQHYRETHLRCAEFELRLTDPVPNPNPHESKPWYYDSLSRGEAEDMLMRIPRDGAFLIRKREGSDSYAITFRARGKVKHCRINRDGRHFVLGTSAYFESLVELVSYYEKHSLYRKMRLRYPVTPELLERYNMERDINSLYDVSRMYVDPSEINPSMPQRTVKALYDYKAKRSDELSFCRGALIHNVSKEPGGWWKGDYGTRIQQYFPSNYVEDISTADFEELEKQIIEDNPLGSLCRGILDLNTYNVVKAPQGKNQKSFVFILEPKQQGDPPVEFATDRVEELFEWFQSIREITWKIDTKENNMKYWEKNQSIAIELSDLVVYCKPTSKTKDNLENPDFREIRSFVETKADSIIRQKPVDLLKYNQKGLTRVYPKGQRVDSSNYDPFRLWLCGSQMVALNFQTADKYMQMNHALFSLNGRTGYVLQPESMRTEKYDPMPPESQRKILMTLTVKVLGARHLPKLGRSIACPFVEVEICGAEYDNNKFKTTVVNDNGLSPIWAPTQEKVTFEIYDPNLAFLRFVVYEEDMFSDPNFLAHATYPIKAVKSGFRSVPLKNGYSEDIELASLLVFCEMRPVLESEEELYSSCRQLRRRQEELNNQLFLYDTHQNLRNANRDALVKEFSVNENQLQLYQEKCNKRLREKRVSNSKFYS
modifications: phosphotyrosine at 759

binding [5]: no binding | binding [4]: binds | binding [1]: binds
B3: protein kinase D2 (PKD2) (enzyme, UniProt Q9BZL6 1-878)
chain: T1 sequence
